42 sequences from article PMC7819943, “Rice protein-binding microarrays: a tool to detect cis-acting elements near promoter regions in rice” can be followed below.

Some of the results follow.

The target of this assay is T1, OsSMF1 (Oryza sativa, UniProt Q6ZLB0 1-436).
T1 sequence: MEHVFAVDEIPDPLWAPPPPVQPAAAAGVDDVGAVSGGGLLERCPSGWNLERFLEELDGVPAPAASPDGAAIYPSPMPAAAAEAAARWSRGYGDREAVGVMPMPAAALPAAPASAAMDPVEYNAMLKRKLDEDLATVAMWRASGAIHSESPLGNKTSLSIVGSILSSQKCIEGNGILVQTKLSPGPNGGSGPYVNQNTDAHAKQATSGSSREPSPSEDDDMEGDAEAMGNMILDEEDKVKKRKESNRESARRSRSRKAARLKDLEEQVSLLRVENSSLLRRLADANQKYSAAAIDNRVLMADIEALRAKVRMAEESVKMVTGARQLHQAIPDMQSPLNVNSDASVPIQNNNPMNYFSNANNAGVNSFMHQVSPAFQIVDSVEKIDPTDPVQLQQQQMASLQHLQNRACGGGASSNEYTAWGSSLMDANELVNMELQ
Description: protein-binding microarray (RPBM); PBS, 2% BSA, 51.3 ng/ul salmon testes DNA, 50 uM zinc acetate, 200 nM TF, 25 C, 1 h; high values mean tight binding. Conditions: protein: recombinant; tags: N-terminal polyhistidine and DsRed monomer fusion (pET32a); chain copies: 2; label: CyDye5-dUTP incorporated in the synthesized complementary strand; 3' TTTTT single-stranded linker to array surface; dsDNA, one strand shown. In short, it runs like this: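 Transcription factors, each fused N-terminally to a polyhistidine tag and DsRed, were expressed in E. coli BL21-CodonPlus and purified on Ni–NTA. A custom Agilent array was made double-stranded by primer extension with Cy5-dUTP and blocked with 2% BSA. It was incubated with 200 nM protein in PBS, 2% BSA, salmon testes DNA and 50 µM zinc acetate at 25 °C for 1 h, then washed. The binding signal is per-feature fluorescence intensity (arbitrary units) read on an Axon 4000B scanner.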
“ATCTCGCGGCGCGCTCACGTCCACGCCCTCGCATCCACAACGGAGTCACCTAGTGCAG”: the binding signal is 4310 fluorescence intensity (a.u.).
As to “CTCAGATTCTGAACTTAACTACAAATGTGTGATAAGGATACGGAGTCACCTAGTGCAG”, the binding signal was 13300 fluorescence intensity (a.u.).
Under “CGCAACAGCGGTACAGTGTGATACGTGTATGTATACGGTGCGGAGTCACCTAGTGCAG” stands 4340 fluorescence intensity (a.u.); under “TAGTTAATCAGTTGGGAACACACACGTCGGCCGTCTCGTCCGGAGTCACCTAGTGCAG”, 5780 fluorescence intensity (a.u.).
Regarding “TTCTTCTTGGTGGTGGTGGGGCCTGGAAACTATGTGACTTCGGAGTCACCTAGTGCAG”, the binding signal was 4270 fluorescence intensity (a.u.).
In the case of “ACATGAAATTTACAACTAGGAATAACTATAAATGACAATTCGGAGTCACCTAGTGCAG” it was 3400 fluorescence intensity (a.u.); in that of “TGCTTGCTGCTGACCAAGCTCTCTTCTTCTCCTCCTCCTCCGGAGTCACCTAGTGCAG”, 4480 fluorescence intensity (a.u.); in that of “GTTCATCTTGCTGATATGCGTTTATTCAATTTTCTTGGTTCGGAGTCACCTAGTGCAG”, 3370 fluorescence intensity (a.u.).
On to “TGAGAGAGTGGGCCCCACGCGGCAGCGACGCACGCATGATCGGAGTCACCTAGTGCAG”, for which the binding signal was 4180 fluorescence intensity (a.u.).
In the case of “CGAGCCTCCAATGGTTGGGTGCAGACGTCACGACCCACCGCGGAGTCACCTAGTGCAG” it was 4980 fluorescence intensity (a.u.); in that of “CCTTCTTTGCAGGGAAATTCGTGTGGTAGGTGGCAGGTAGCGGAGTCACCTAGTGCAG”, 3500 fluorescence intensity (a.u.); in that of “CGAGCGACGGCCTCAGCGGCGGCGGCGGCGGCGGCGGTGGCGGAGTCACCTAGTGCAG”, 3800 fluorescence intensity (a.u.).
Under “GAGGCGAGCTGAGGCCAACCACGGCGGCGGCGGCGAACGACGGAGTCACCTAGTGCAG” stands 3700 fluorescence intensity (a.u.).
In the case of “TCTCCGGCGATCCGGAGCAGGGGCGATGGCGGCGCGGGGCCGGAGTCACCTAGTGCAG” it was 3370 fluorescence intensity (a.u.); in that of “GGCTGCGGCGCTGTCCCTCCGTCTGCGTGATCCGACAACCCGGAGTCACCTAGTGCAG”, 3800 fluorescence intensity (a.u.); in that of “AAACGCTCGAGGGCCTTCCGGCTAGCTCTATAAGGTGGTGCGGAGTCACCTAGTGCAG”, 28100 fluorescence intensity (a.u.).
As for “CCAAGTGATGCCGTGACATCCCCACAGCCAGCAAACGATCCGGAGTCACCTAGTGCAG”, the binding signal was 3490 fluorescence intensity (a.u.).
Under “ATCTAACATTTGATTCTCGCTTGAATTGACTGACCCAAAACGGAGTCACCTAGTGCAG” stands 3160 fluorescence intensity (a.u.); under “CGTGGGCTCTCGCTGGACGCTACTCCAGTCAACAGTGGTCCGGAGTCACCTAGTGCAG”, 20100 fluorescence intensity (a.u.).
Under “AGGGAGGAGGGGCGCACAGAGGAGATAGGCCACGTATGGACGGAGTCACCTAGTGCAG” stands 5320 fluorescence intensity (a.u.).
Regarding “TCTGGTATCTCTCTCTGGTAGCGGCGCCGACGTGCGGAGGCGGAGTCACCTAGTGCAG”, the binding signal is 36400 fluorescence intensity (a.u.).
Under “TAGCGTGCATTGTAGTTACACACTTACATGTATCGTTATGCGGAGTCACCTAGTGCAG” stands 3310 fluorescence intensity (a.u.); under “CGCCGCCTCGTCACCGGCCGCTCCTTCCTCCGCCGCTACCCGGAGTCACCTAGTGCAG”, 5740 fluorescence intensity (a.u.).
Under “CGCGCGCGCCCACGGGCGTCGGCGCGCGGAGGTCGCAGGGCGGAGTCACCTAGTGCAG” stands 3720 fluorescence intensity (a.u.).
Under “CGCAAGGCTGACGAAATCACGATATGGCATGGTTGGTACGCGGAGTCACCTAGTGCAG” stands 3760 fluorescence intensity (a.u.); under “AACCATTACTATTTGTCATGTCATGTATGCCAAACTTTTCCGGAGTCACCTAGTGCAG”, 4290 fluorescence intensity (a.u.).
“GTTATAGTTACACCACGTAATCAACAAGACCGGCCTATGCCGGAGTCACCTAGTGCAG”: the binding signal was 7620 fluorescence intensity (a.u.).
As to “GTCGCCTGATTGAGCGCTTCATGATCTTGACTTCTCAACTCGGAGTCACCTAGTGCAG”, the binding signal was 4560 fluorescence intensity (a.u.).
In the case of “AAAAGCCCGCGCGCAACGGACGTTTCTCCCGCGCTTTCCTCGGAGTCACCTAGTGCAG” it was 3540 fluorescence intensity (a.u.).
For “GTCATGCGGACTGCACTGCGCTGACTCGTTCTTGCTCTTGCGGAGTCACCTAGTGCAG”, the binding signal was 5610 fluorescence intensity (a.u.).
In the case of “GTCACATTCTCAGAGTACAAAGCTCACTGCTCACCACAGCCGGAGTCACCTAGTGCAG” it was 3170 fluorescence intensity (a.u.); in that of “CAGCCACTGCTCCGCCCAGTCGTGTCATTCGCCCACTAGCCGGAGTCACCTAGTGCAG”, 4200 fluorescence intensity (a.u.).
As for “TAGGTCAAACTACCACGTAAGCGTCACGTCGATGCCACGTCGGAGTCACCTAGTGCAG”, the binding signal is 23800 fluorescence intensity (a.u.).
Under “TGTTTCTTCCGTTGTTGCAGCGTTGTGACGTGCATGCTTTCGGAGTCACCTAGTGCAG” stands 7210 fluorescence intensity (a.u.); under “CCATGTAAGTGTCACGTCAATGCCACGTGAGACGAAGACCCGGAGTCACCTAGTGCAG”, 12500 fluorescence intensity (a.u.).
“GAGGATCTCGCCGCCGCTTCGCTCCACGTCCCACCGCCCTCGGAGTCACCTAGTGCAG”: the binding signal is 4790 fluorescence intensity (a.u.).
“TCATTGGTATCTCAATGACATGTAGGACCTACATGAGTCACGGAGTCACCTAGTGCAG”: the binding signal was 8190 fluorescence intensity (a.u.).
With “TTTACAACCGTCAAGCGCTGACTTGTTCTTCGATCGTCTTCGGAGTCACCTAGTGCAG”, the binding signal is 3680 fluorescence intensity (a.u.).
In the case of “CACCGCAGGATTCCTCTCTTGGGTTGACGGCTGCCACAAGCGGAGTCACCTAGTGCAG” it was 27500 fluorescence intensity (a.u.); in that of “TGAAACACAGTATATATTGATGAAGTTGCCACGTAGTCCTCGGAGTCACCTAGTGCAG”, 10900 fluorescence intensity (a.u.).
“GAGCCTAGGTCTTCCGCCGCCGCCGCGCTCCACCGTTGCGCGGAGTCACCTAGTGCAG”: the binding signal is 3260 fluorescence intensity (a.u.).
In the case of “TTTTAATGTTTGTATACATTTAGCGTGATCGGTGAAAATCCGGAGTCACCTAGTGCAG” it was 17800 fluorescence intensity (a.u.).
